From PMC4351826
No constants are given. Whether binding was seen depends on the method and setting. In cells and extracts the contact can be indirect. Some results given as binding are weak or reduced against the parent protein; the word gives no strength. Where a sequence is shown, tags or fusion partners need not be part of it. Blank lines part the entries; values can stand above or below the molecule they belong to.

Amino acid sequences for entries named in this document (tags omitted).
UniProt Q9LXW7: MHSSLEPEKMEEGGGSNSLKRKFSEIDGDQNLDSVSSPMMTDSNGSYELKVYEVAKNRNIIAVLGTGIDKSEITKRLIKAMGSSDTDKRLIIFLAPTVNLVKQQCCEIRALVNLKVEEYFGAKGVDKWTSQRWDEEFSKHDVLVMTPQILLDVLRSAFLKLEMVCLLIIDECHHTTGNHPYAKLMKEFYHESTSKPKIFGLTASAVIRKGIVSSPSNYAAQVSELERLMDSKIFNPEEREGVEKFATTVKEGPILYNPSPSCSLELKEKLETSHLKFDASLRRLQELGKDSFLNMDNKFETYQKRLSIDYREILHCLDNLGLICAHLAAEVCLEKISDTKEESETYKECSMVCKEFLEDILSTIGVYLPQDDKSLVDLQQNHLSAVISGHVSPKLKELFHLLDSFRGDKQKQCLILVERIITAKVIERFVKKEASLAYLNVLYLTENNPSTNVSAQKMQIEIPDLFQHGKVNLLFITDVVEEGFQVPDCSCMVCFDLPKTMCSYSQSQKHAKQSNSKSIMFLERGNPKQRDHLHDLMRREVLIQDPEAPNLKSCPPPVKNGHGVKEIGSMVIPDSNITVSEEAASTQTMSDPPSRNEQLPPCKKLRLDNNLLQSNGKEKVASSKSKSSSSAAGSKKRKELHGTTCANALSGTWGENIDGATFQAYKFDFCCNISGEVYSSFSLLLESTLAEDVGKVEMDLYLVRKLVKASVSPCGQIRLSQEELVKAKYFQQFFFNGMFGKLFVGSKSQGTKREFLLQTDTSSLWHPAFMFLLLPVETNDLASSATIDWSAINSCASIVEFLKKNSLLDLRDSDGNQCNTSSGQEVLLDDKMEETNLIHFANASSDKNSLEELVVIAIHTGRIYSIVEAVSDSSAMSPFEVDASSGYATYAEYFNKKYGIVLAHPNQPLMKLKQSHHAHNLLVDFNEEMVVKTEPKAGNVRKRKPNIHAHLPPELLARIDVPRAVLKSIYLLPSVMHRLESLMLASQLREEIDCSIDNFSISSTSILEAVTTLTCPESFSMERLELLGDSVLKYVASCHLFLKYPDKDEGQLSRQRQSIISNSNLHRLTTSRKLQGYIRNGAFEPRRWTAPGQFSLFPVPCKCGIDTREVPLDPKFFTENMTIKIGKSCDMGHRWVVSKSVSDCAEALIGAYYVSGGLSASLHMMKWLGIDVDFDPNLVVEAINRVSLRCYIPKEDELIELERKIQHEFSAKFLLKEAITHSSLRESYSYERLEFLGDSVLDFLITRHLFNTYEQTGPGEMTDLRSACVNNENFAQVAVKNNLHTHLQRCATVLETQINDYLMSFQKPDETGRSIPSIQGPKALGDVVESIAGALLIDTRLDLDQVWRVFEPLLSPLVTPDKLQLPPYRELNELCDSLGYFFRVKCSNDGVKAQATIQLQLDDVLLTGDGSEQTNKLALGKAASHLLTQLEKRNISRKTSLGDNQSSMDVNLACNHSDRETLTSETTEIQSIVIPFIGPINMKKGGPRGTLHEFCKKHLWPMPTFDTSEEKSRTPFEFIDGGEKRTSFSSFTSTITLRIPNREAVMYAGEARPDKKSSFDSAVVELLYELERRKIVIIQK
UniProt Q9SP32: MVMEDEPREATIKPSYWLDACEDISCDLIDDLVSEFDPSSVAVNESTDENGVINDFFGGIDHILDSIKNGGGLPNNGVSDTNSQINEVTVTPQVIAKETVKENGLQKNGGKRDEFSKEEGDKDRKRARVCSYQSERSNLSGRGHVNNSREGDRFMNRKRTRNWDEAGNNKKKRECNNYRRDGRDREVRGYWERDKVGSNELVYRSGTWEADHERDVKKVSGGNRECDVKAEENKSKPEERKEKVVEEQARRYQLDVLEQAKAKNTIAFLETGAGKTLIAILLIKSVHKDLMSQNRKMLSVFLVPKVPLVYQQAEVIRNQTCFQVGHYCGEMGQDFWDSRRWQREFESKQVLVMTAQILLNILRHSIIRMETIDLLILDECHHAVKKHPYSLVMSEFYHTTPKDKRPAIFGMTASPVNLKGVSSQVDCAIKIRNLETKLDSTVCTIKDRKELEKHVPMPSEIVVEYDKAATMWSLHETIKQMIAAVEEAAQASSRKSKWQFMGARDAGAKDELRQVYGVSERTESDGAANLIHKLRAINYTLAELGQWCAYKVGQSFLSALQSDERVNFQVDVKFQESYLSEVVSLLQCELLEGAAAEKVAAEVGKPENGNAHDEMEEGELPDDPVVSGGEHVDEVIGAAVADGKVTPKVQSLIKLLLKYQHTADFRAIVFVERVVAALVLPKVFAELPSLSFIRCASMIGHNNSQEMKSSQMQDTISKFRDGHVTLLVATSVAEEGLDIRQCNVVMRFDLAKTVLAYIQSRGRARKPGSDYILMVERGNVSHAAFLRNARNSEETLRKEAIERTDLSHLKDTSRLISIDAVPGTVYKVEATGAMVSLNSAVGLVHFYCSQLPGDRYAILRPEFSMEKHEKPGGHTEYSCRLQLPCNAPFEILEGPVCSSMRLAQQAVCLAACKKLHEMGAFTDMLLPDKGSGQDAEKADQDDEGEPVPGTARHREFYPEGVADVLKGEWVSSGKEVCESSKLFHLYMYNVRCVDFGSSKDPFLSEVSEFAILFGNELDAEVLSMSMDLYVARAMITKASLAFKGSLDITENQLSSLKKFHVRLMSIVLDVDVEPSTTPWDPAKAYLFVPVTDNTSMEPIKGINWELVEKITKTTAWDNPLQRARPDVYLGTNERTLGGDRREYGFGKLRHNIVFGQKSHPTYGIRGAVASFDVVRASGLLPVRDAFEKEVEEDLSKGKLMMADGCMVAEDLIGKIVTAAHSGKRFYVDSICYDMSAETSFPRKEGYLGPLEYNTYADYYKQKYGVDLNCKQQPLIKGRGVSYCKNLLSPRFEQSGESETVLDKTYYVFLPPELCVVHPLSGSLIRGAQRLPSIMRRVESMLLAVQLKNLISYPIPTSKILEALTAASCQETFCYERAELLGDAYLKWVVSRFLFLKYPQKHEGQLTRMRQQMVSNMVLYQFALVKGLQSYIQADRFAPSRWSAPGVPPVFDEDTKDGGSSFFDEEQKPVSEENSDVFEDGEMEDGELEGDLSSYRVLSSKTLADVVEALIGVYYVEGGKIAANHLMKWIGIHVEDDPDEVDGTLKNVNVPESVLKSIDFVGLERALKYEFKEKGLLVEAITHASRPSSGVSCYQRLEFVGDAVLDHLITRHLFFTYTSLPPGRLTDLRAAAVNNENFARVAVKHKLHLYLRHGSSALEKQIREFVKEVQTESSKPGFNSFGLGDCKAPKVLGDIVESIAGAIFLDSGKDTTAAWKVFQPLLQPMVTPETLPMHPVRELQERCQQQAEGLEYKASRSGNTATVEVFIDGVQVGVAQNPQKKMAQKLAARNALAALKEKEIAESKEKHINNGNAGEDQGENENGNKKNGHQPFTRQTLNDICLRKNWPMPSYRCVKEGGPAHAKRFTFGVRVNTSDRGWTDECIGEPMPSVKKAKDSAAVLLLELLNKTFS
UniProt P84634: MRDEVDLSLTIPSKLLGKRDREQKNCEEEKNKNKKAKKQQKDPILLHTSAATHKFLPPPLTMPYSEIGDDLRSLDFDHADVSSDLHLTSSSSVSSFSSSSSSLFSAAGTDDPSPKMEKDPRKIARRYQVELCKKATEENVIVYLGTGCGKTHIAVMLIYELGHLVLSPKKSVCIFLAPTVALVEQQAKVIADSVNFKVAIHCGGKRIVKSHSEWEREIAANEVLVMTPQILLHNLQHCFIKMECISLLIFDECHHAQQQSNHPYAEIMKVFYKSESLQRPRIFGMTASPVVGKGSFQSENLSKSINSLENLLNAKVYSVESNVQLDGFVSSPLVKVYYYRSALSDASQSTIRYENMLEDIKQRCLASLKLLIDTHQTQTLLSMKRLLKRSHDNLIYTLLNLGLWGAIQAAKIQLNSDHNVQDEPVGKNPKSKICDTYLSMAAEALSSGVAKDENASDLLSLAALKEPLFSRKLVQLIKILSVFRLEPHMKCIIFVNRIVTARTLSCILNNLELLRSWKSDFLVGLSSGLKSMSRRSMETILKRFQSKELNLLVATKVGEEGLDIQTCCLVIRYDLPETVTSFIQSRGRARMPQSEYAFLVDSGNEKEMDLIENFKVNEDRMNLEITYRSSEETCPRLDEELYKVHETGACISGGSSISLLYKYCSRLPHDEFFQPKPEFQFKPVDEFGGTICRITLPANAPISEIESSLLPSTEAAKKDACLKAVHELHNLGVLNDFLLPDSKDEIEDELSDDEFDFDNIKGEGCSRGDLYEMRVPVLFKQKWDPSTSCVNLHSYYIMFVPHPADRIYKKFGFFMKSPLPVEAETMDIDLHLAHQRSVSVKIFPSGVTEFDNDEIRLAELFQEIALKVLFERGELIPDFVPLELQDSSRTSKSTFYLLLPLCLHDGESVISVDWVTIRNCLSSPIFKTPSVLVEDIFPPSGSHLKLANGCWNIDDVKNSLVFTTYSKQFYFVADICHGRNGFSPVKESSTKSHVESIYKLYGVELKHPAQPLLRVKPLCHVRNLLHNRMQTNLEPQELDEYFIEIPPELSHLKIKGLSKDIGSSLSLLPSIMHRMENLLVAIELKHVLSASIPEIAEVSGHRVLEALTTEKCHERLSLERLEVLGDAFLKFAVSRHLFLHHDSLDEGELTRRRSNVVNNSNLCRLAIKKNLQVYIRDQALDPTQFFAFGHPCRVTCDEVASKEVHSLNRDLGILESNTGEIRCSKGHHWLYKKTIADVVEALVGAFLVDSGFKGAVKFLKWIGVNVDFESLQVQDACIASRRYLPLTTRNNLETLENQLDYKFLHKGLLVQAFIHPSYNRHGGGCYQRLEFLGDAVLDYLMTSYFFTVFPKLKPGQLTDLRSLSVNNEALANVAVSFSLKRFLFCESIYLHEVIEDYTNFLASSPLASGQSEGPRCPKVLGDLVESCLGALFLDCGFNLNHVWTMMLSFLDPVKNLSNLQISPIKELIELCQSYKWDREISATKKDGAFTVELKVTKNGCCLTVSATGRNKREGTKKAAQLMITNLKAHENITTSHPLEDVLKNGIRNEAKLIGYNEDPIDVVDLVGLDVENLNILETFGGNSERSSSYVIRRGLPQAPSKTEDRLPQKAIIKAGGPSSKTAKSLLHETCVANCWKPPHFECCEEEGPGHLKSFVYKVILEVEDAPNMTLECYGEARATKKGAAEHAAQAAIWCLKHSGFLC

Key:
[1] = biological target: T1, DRB2-FlagHA (Arabidopsis thaliana) (UniProt Q9SKN2); assay: co-IP; Flag IP from crude extracts of the DRB2-FlagHA complemented line (or of plants cotransformed with DRB2-FlagHA and DRB4-Cmyc); western blot with Cmyc or custom made antibodies
T1 sequence: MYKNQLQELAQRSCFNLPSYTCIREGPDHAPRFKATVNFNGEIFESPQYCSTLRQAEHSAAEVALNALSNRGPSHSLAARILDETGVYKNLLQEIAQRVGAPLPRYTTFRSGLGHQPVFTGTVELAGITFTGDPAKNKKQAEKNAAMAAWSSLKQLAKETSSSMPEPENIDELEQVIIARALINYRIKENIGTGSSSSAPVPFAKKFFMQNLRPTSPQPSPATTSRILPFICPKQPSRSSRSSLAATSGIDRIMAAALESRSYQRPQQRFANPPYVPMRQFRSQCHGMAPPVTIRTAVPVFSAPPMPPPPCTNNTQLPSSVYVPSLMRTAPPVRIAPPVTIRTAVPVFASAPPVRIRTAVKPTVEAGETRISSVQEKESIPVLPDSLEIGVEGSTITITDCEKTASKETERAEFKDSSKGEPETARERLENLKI

[2] = biological target: NERD-FlagHA (Arabidopsis thaliana) (UniProt Q9SIV5); assay: co-IP; DRB2-FlagHA (or NERD-FlagHA) immunoprecipitated on anti Flag magnetic beads, beads then challenged with DRB2-Cmyc extracts; eluate blotted with Cmyc antibody
[3] = biological target: T1, DRB2-FlagHA (Arabidopsis thaliana); assay: as above
[4] = biological target: T2, MSI4-eGFP (transiently expressed in Nicotiana benthamiana) (Arabidopsis thaliana) (UniProt O22607); assay: co-IP; DRB2-FlagHA and MSI4-eGFP transiently co-expressed in N. benthamiana leaves; GFP IP, western blot with HA antibody
T2 sequence: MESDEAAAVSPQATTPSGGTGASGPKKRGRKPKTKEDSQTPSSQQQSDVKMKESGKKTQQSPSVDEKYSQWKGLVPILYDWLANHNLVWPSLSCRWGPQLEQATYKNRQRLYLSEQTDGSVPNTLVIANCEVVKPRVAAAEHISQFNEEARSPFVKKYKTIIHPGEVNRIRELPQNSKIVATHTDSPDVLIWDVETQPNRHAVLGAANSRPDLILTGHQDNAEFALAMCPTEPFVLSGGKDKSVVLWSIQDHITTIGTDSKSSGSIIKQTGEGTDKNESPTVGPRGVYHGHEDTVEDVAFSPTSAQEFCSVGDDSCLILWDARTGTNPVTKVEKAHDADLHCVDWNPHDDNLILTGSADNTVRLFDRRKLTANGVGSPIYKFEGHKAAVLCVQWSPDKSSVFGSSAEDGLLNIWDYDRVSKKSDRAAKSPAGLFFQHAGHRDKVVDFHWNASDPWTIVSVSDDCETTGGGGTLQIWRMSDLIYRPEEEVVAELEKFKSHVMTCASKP

[5] = biological target: T3, MSI4-eGFP (Arabidopsis thaliana) (UniProt O22607); assay: co-IP; F1 plants harbouring DRB2-FlagHA and the second transgene; Cmyc IP (PRMT4B-Cmyc) or GFP IP (HDA19-GFP, MSI4-eGFP, eGFP-MSI4); DRB2-FlagHA revealed with HA antibody
T3 sequence: T2 sequence

[6] = biological target: T4, PRMT4B-Cmyc (Arabidopsis thaliana) (UniProt Q84W92); assay: as above
T4 sequence: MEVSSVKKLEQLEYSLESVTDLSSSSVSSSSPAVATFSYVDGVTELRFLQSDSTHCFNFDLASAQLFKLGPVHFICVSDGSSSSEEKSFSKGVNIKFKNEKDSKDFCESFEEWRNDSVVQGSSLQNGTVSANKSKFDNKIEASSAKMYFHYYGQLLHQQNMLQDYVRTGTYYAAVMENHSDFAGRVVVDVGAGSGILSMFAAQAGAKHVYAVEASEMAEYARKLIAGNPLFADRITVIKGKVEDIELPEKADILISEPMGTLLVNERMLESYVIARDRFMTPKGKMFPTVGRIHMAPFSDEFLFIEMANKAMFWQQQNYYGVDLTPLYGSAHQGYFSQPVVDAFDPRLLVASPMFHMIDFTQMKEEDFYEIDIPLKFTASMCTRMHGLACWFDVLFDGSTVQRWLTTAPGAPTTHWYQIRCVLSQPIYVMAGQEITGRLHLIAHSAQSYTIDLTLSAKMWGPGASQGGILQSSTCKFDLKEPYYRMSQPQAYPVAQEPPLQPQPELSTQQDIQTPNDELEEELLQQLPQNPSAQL

[7] = biological target: T5, HDA19-GFP (Arabidopsis thaliana) (UniProt O22446); assay: as above
T5 sequence: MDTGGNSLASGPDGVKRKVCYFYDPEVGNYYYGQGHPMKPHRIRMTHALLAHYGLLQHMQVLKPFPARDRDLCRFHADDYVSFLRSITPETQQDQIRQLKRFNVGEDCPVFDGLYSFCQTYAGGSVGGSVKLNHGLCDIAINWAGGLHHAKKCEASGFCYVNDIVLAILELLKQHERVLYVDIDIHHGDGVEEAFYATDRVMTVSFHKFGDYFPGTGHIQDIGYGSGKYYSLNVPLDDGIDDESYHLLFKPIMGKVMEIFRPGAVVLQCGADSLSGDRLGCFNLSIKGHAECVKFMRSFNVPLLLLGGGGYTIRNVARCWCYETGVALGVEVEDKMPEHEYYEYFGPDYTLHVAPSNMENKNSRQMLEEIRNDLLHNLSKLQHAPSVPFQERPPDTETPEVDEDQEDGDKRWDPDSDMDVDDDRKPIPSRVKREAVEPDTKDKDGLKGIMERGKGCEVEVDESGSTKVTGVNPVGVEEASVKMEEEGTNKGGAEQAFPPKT

[8] = biological target: T6, eGFP-MSI4 (Arabidopsis thaliana) (UniProt O22607); assay: as above
T6 sequence: T2 sequence

[9] = biological target: T1, DRB2-FlagHA (Arabidopsis thaliana); assay: co-IP; Flag IP from crude extracts of the DRB2-FlagHA complemented line (or of plants cotransformed with DRB2-FlagHA and DRB4-Cmyc); western blot with Cmyc or custom made antibodies; remark: listed apart in the source

Molecule: DCL3 (from UniProt Q9LXW7 1-1580) (enzyme)
binding [1]: no binding

Molecule: DCL1 (from UniProt Q9SP32 1-1909) (enzyme)
binding [1]: no binding

Molecule: DCL4 (from UniProt P84634 1-1702) (enzyme)
binding [1]: no binding

B1: DRB2-Cmyc (protein, UniProt Q9SKN2 1-434)
chain: T1 sequence
binding [2]: no binding
binding [3]: binds

B5: DRB1 (protein, UniProt O04492 1-419)
chain: MTSTDVSSGVSNCYVFKSRLQEYAQKYKLPTPVYEIVKEGPSHKSLFQSTVILDGVRYNSLPGFFNRKAAEQSAAEVALRELAKSSELSQCVSQPVHETGLCKNLLQEYAQKMNYAIPLYQCQKVETLGRVTQFTCTVEIGGIKYTGAATRTKKDAEISAGRTALLAIQSDTKNNLANYNTQLTVLPCEKKTIQAAIPLKETVKTLKARKAQFKKKAQKGKRTVAKNPEDIIIPPQPTDHCQNDQSEKIETTPNLEPSSCMNGLKEAAFGSVETEKIETTPNLEPPSCMNGLKEAAFGSVETEKIETTPNLEPPSCMNGLKEAAFGSVETEKIETTPNLEPSSCMNGLKEAAFGSVETEKIETTPNLEPPSCMNGLKEAAFGSVETEKIETTPNLESSSCMSGLKEAAFGSVETEASHA
binding [9]: no binding

The next lines start with the values.

binding [4]: binds
B2: DRB2-FlagHA (transiently expressed in Nicotiana benthamiana) (protein, UniProt Q9SKN2 1-434)
chain: T1 sequence

binding [5]: binds
binding [6]: binds
binding [7]: binds
binding [8]: binds
B3: DRB2-FlagHA (protein, UniProt Q9SKN2 1-434)
chain: T1 sequence

binding [9]: no binding
B4: DRB5 (protein, UniProt Q8GY79 1-393)
chain: MYKNQLQELAQRSCFNLPSYTCIREGPDHAPRFKASVNFNGEIFESPTYCSTLRQAEHAAAEVSLNVLSSRVPSKSLTAKILDETGIYKNLLQETAHRAGLDLPMYTSVRSGSCHFPGFSCTVELAGMTFTGESAKTKKQAEKNAAIAAWSSLKKMSSLDSQDEEKEQEAVARVLSRFKPKEVRRRETTNQWRRRTSQQDSNKDLLIERLRWINLLTNQASSSSSTSTPNQHKNSSFISLIPPPPPPKSSKILPFIQQYKDRSSQEAKTETATEMINSKAKVNETSTRLSKQMPFSDMNRYNFVGGCSVNPYSLAPAVQMRSVIPVFAAPPPKPNPNLNPSSLSSSVNEFTSSNNSCSVLNTPGLGGQEKKNLTREMIKLGSESRILDQTHDS

binding [9]: no binding
B6: RDR2 (enzyme, UniProt O82504 1-1133)
chain: MVSETTTNRSTVKISNVPQTIVADELLRFLELHLGEDTVFALEIPTTRDNWKPRDFARVQFTTLEVKSRAQLLSSQSKLLFKTHNLRLSEAYDDIIPRPVDPRKRLDDIVLTVGFPESDEKRFCALEKWDGVRCWILTEKRRVEFWVWESGDCYKIEVRFEDIIETLSCCVNGDASEIDAFLLKLKYGPKVFKRVTVHIATKFKSDRYRFCKEDFDFMWIRTTDFSGSKSIGTSTCFCLEVHNGSTMLDIFSGLPYYREDTLSLTYVDGKTFASAAQIVPLLNAAILGLEFPYEILFQLNALVHAQKISLFAASDMELIKILRGMSLETALVILKKLHQQSSICYDPVFFVKTQMQSVVKKMKHSPASAYKRLTEQNIMSCQRAYVTPSKIYLLGPELETANYVVKNFAEHVSDFMRVTFVEEDWSKLPANALSVNSKEGYFVKPSRTNIYNRVLSILGEGITVGPKRFEFLAFSASQLRGNSVWMFASNEKVKAEDIREWMGCFRKIRSISKCAARMGQLFSASRQTLIVRAQDVEQIPDIEVTTDGADYCFSDGIGKISLAFAKQVAQKCGLSHVPSAFQIRYGGYKGVIAVDRSSFRKLSLRDSMLKFDSNNRMLNVTRWTESMPCFLNREIICLLSTLGIEDAMFEAMQAVHLSMLGNMLEDRDAALNVLQKLSGENSKNLLVKMLLQGYAPSSEPYLSMMLRVHHESQLSELKSRCRILVPKGRILIGCMDEMGILEYGQVYVRVTLTKAELKSRDQSYFRKIDEETSVVIGKVVVTKNPCLHPGDIRVLDAIYEVHFEEKGYLDCIIFPQKGERPHPNECSGGDLDGDQFFVSWDEKIIPSEMDPPMDYAGSRPRLMDHDVTLEEIHKFFVDYMISDTLGVISTAHLVHADRDPEKARSQKCLELANLHSRAVDFAKTGAPAEMPYALKPREFPDFLERFEKPTYISESVFGKLYRAVKSSLAQRKPEAESEDTVAYDVTLEEAGFESFIETAKAHRDMYGEKLTSLMIYYGAANEEEILTGILKTKEMYLARDNRRYGDMKDRITLSVKDLHKEAMGWFEKSCEDEQQKKKLASAWYYVTYNPNHRDEKLTFLSFPWIVGDVLLDIKAENAQRQSVEEKTSGLVSI
